Test results reported in the supplement of paper PMC10060354, “Discovery of a small molecule ligand of FRS2 that inhibits invasion and tumor growth” (Cellular Oncology, 2022).
Repeats are few or missing, and single values can be far off.

Amino acid sequences for entries named in this document (tags omitted). A change or cut given only in a name is not applied to a line headed by its entry.
UniProt Q99653: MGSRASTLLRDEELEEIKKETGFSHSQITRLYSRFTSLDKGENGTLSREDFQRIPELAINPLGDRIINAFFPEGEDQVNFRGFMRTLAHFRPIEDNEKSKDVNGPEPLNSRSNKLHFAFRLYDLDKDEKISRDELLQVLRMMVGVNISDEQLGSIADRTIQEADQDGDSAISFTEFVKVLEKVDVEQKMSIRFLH
UniProt Q9UNS2: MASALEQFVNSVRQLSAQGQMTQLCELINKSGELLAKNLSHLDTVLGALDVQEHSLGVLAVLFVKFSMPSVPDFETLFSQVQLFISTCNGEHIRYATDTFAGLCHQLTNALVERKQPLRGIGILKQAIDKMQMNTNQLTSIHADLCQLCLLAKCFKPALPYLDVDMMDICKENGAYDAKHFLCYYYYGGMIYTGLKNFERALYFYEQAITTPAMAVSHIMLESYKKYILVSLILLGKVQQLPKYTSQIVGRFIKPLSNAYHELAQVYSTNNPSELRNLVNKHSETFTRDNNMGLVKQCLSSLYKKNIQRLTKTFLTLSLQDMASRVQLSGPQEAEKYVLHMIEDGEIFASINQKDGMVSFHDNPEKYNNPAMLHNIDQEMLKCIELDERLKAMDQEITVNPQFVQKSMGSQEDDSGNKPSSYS
UniProt Q6P158: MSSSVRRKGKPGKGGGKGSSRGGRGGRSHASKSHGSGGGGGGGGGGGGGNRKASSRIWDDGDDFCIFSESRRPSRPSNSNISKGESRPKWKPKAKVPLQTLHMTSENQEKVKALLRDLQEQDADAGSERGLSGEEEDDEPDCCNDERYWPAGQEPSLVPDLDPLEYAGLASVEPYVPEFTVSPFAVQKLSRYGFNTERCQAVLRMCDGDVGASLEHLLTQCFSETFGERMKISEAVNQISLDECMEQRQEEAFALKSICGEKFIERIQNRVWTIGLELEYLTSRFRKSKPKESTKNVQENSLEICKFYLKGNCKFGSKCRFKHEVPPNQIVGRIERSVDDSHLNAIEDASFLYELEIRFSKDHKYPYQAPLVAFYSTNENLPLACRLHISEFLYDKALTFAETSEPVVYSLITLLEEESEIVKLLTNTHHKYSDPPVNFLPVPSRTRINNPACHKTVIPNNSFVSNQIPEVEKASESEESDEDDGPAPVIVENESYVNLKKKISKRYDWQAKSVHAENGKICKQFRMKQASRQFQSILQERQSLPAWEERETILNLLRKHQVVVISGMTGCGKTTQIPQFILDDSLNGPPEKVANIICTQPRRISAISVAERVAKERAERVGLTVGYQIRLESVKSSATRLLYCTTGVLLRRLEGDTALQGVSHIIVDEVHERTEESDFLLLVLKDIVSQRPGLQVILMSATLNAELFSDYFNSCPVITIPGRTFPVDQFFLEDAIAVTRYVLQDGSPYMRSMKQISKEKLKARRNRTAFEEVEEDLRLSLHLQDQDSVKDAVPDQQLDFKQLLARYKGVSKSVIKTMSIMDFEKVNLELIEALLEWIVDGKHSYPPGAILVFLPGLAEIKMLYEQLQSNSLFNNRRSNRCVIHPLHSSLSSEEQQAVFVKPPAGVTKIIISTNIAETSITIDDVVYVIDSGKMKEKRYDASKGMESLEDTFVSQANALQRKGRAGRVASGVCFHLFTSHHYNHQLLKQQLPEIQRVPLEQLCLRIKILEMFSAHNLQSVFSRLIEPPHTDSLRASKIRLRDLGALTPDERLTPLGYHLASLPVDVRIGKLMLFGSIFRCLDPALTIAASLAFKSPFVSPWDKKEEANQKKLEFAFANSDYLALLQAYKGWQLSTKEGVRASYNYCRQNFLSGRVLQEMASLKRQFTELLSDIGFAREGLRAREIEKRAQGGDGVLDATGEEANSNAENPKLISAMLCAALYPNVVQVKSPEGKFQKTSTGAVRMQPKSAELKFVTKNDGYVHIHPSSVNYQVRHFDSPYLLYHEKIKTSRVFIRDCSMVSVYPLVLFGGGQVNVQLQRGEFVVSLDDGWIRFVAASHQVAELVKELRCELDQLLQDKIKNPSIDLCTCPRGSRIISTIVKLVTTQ
UniProt Q14241: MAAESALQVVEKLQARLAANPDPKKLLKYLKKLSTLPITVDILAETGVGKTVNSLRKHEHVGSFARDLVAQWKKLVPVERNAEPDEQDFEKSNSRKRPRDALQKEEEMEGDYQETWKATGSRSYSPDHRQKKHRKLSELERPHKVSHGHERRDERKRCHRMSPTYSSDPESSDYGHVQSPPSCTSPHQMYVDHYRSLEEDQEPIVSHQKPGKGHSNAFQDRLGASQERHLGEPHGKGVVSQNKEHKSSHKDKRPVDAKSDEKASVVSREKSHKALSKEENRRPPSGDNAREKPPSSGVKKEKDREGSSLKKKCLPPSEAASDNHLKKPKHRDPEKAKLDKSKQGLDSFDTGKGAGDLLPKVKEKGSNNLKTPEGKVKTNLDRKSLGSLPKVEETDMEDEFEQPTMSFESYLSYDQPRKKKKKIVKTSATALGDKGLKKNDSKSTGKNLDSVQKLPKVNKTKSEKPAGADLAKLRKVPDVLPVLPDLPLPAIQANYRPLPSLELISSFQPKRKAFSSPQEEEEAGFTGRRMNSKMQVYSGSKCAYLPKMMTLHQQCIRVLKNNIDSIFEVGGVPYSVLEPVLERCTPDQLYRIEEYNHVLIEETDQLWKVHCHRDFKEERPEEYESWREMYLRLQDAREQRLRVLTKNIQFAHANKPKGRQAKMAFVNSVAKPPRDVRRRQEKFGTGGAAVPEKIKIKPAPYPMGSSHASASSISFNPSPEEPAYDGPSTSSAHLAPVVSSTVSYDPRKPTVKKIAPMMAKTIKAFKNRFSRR
UniProt Q93063: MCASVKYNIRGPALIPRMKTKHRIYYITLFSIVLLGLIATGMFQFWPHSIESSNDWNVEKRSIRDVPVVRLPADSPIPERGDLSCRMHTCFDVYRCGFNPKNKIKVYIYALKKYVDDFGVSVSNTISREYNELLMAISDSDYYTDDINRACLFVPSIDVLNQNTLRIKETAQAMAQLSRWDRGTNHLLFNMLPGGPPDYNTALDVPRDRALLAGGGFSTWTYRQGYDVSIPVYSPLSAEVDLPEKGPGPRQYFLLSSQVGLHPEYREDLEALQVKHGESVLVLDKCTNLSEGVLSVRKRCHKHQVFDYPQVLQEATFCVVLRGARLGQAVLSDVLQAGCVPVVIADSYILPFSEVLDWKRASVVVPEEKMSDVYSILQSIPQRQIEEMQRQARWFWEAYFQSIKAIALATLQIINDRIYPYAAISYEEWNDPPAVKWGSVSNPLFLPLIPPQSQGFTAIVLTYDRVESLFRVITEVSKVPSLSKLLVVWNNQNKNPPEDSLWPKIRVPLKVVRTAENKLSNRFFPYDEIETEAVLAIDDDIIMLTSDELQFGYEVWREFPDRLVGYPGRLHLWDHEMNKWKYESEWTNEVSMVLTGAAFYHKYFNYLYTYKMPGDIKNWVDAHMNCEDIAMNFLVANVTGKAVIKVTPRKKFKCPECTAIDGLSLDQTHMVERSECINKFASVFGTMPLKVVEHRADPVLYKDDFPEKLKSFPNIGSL
UniProt Q96I99: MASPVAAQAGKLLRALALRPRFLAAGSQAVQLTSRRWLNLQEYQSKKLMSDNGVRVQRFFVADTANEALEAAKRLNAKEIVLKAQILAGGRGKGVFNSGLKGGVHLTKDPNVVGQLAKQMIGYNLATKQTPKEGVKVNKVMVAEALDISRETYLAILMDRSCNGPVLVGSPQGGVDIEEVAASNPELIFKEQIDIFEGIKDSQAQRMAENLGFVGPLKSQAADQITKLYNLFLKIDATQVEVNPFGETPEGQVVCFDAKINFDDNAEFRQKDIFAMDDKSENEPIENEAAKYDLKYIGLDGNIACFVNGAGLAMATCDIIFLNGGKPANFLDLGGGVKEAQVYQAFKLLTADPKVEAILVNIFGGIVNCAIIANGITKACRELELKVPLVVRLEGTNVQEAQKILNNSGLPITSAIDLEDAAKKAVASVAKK
UniProt P04439, whole entry: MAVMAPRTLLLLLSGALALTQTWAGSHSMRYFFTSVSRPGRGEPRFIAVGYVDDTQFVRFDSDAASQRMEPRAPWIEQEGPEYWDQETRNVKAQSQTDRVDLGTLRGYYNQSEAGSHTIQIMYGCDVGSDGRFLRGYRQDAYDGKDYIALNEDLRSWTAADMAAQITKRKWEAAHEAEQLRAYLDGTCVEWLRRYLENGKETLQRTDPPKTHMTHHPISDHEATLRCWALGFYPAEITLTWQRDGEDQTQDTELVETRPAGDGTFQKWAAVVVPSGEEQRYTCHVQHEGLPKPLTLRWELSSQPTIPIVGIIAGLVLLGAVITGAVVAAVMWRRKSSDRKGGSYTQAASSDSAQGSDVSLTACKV
UniProt P84101: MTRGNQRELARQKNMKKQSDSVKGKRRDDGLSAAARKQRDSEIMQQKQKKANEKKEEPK
UniProt P62191: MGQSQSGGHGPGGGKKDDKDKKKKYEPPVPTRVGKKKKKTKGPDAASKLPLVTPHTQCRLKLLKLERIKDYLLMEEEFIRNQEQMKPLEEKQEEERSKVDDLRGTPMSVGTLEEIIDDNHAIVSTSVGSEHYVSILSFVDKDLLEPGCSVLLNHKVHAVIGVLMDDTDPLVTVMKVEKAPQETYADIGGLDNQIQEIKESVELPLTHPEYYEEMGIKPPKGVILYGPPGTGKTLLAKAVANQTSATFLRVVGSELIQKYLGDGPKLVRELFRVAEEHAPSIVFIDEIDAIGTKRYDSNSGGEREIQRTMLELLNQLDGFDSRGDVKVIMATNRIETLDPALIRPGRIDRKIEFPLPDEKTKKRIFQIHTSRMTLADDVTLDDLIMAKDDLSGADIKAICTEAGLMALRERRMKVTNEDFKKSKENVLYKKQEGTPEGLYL
UniProt Q9H490: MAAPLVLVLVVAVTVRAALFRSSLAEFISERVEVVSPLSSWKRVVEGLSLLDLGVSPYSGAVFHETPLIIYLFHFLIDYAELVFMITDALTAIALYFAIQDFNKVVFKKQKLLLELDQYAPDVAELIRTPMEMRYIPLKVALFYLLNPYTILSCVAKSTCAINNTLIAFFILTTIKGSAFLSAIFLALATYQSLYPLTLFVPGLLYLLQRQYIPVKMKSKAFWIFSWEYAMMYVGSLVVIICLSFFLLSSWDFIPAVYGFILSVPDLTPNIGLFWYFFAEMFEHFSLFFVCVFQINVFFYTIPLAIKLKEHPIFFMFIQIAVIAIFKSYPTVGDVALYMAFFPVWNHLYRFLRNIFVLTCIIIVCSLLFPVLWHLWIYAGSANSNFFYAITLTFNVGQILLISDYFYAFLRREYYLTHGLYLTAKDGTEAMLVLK
UniProt P62316, whole entry: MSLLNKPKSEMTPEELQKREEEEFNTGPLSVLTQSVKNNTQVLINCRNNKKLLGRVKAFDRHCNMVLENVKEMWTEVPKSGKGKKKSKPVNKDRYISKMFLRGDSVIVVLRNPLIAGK
UniProt Q9Y243: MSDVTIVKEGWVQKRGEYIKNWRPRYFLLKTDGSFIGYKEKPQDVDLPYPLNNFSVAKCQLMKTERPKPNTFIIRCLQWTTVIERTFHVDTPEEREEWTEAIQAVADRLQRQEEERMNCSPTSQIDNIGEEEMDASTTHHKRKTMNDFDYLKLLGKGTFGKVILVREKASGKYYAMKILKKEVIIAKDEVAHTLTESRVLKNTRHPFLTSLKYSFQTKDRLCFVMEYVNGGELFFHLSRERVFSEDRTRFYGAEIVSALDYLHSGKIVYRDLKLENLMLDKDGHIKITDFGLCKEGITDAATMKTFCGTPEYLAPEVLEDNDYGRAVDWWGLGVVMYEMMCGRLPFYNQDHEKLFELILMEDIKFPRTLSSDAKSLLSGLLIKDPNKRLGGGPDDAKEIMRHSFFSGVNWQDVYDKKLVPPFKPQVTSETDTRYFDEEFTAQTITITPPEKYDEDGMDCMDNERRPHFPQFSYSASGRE
UniProt Q9H1I8: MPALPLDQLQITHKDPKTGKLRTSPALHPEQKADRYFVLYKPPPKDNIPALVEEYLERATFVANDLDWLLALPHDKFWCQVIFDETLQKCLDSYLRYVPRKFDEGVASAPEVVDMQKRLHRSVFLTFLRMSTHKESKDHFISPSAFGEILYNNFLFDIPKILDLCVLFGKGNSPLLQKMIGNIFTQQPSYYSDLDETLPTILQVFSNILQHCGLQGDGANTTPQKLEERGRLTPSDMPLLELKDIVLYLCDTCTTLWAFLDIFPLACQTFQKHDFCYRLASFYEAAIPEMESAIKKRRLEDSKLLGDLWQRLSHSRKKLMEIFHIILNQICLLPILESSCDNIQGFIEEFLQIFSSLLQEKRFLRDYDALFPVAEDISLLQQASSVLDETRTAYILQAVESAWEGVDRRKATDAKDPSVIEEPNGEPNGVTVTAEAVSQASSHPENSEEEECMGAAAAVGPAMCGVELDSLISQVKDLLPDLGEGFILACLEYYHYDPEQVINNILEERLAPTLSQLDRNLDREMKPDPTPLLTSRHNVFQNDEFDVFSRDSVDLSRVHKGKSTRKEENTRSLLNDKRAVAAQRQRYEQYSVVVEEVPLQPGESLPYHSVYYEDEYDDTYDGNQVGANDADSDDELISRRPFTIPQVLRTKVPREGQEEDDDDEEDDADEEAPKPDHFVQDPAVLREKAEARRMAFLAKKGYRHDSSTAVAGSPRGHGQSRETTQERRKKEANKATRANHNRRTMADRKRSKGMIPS

Compound: [O-][N+](C(C1=C(C(O)=C2)NC(C(C=C3)=CC=C3Cl)C4C1C=CC4)=C2Cl)=O
Test: melting temperature shift (compound 7 minus DMSO); higher = compound stabilises the protein
Conditions: 10 µM
Protocol: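 Thermal proteome profiling (TMT mass spectrometry) in intact DAOY medulloblastoma cells or DAOY lysates treated with 10 µM compound 7 or DMSO, heated at 10 temperatures from 40.5 to 73.8 °C for 3 min. Melting curves were fitted with the Bioconductor TPP package, and the melting point difference between compound and vehicle is reported per protein (single curve per condition).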

[1] = system: DAOY cell lysate, treatment time: 20 min, 4 °C
[2] = system: intact DAOY cells, treatment time: 90 min, 37 °C

Row | Target | melting temperature shift [1] | melting temperature shift [2]
1 | PRC1 (UniProt O43663) | 0.409 °C | -1.24 °C
2 | IFI35 (UniProt P80217) | -1.14 °C | 0.184 °C
3 | UniProt P35612 | -0.0999 °C | 0.631 °C
4 | MB21D1 (UniProt Q8N884) | -1.21 °C | -1.69 °C
5 | ATP9A (UniProt O75110) | -1.4 °C | –
6 | CHP1 (UniProt Q99653) | 1.28 °C | -1 °C
7 | CRYZL1 (UniProt O95825) | -1.84 °C | -0.526 °C
8 | UniProt Q92610 | – | -1.87 °C
9 | TOM1 (UniProt O60784) | – | -0.00825 °C
10 | UniProt O60229 | – | -0.725 °C
11 | ATP6V1E1 (UniProt P36543) | -0.411 °C | 0.587 °C
12 | DR1 (UniProt Q01658) | -1.9 °C | 0.96 °C
13 | PQBP1 (UniProt O60828) | -2.7 °C | –
14 | CCDC115 (UniProt Q96NT0) | -0.126 °C | -0.746 °C
15 | TFAP4 (UniProt Q01664) | 0.114 °C | 0.0708 °C
16 | NMNAT1 (UniProt Q9HAN9) | -1.67 °C | –
17 | PSMD13 (UniProt Q9UNM6) | -0.673 °C | -1.15 °C
18 | CIC (UniProt Q96RK0) | 1.22 °C | –
19 | SUGP1 (UniProt Q8IWZ8) | 0.443 °C | -1.18 °C
20 | FAM32A (UniProt Q9Y421) | 1.04 °C | –
21 | FTSJ1 (UniProt Q9UET6) | -0.337 °C | -0.157 °C
22 | STK33 (UniProt Q9BYT3) | -1 °C | –
23 | UniProt Q6P9A1 | – | -1.17 °C
24 | CDC42EP4 (UniProt Q9H3Q1) | 0.208 °C | 0.0859 °C

Row | Target | melting temperature shift [1] | melting temperature shift [2]
25 | UniProt Q9UGY1 | 1.39 °C | -0.182 °C
26 | UniProt Q9H4I9 | -2.67 °C | –
27 | COPS3 (UniProt Q9UNS2) | – | 0.0929 °C
28 | DHX57 (UniProt Q6P158) | -0.477 °C | 0.471 °C
29 | ATP5O (UniProt P48047) | 1.52 °C | -1.29 °C
30 | CDCA3 (UniProt Q99618) | -0.122 °C | –
31 | TCEB3 (UniProt Q14241) | -1.85 °C | -0.737 °C
32 | EXT2 (UniProt Q93063) | 1.26 °C | 0.00852 °C
33 | UniProt Q9HCM4 | -0.805 °C | 0.104 °C
34 | FNTA (UniProt P49354) | 0.00424 °C | -0.0515 °C
35 | SUCLG2 (UniProt Q96I99) | 0.22 °C | -1.86 °C
36 | IVD (UniProt P26440) | 0.163 °C | -0.954 °C
37 | MTSS1L (UniProt Q765P7) | -2.37 °C | –
38 | PARP1 (UniProt P09874) | 0.482 °C | -0.874 °C
39 | UBE2N (UniProt P61088) | -0.759 °C | -0.256 °C
40 | TACC1 (UniProt O75410) | 0.551 °C | -0.366 °C
41 | AK4 (UniProt P27144) | -0.0989 °C | -1.38 °C
42 | NUP160 (UniProt Q12769) | -0.331 °C | -1.19 °C
43 | UniProt Q9H361 | -0.315 °C | 0.145 °C
44 | NRF1 (UniProt Q16656) | 0.186 °C | 0.333 °C
45 | UniProt Q96GX2 | -0.677 °C | 1.29 °C
46 | ENDOD1 (UniProt O94919) | 1.01 °C | 0.0577 °C
47 | RCN2 (UniProt Q14257) | 0.0681 °C | 1.11 °C
48 | PSMA3 (UniProt P25788) | – | -0.179 °C

Row | Target | melting temperature shift [1] | melting temperature shift [2]
49 | CDC5L (UniProt Q99459) | 0.492 °C | -0.388 °C
50 | UniProt Q8N257 | 3.17 °C | –
51 | GNA13 (UniProt Q14344) | 0.558 °C | –
52 | UniProt Q9UJJ9 | 0.809 °C | -1.74 °C
53 | RSL24D1 (UniProt Q9UHA3) | 1.46 °C | 1.26 °C
54 | UniProt P04439 | 2.32 °C | –
55 | TBRG4 (UniProt Q969Z0) | -0.711 °C | -0.199 °C
56 | PPIA (UniProt P62937) | -0.235 °C | 0.113 °C
57 | YME1L1 (UniProt Q96TA2) | 1.13 °C | -1.66 °C
58 | STXBP5 (UniProt Q5T5C0) | – | 1.32 °C
59 | EHBP1 (UniProt Q8NDI1) | -0.341 °C | -0.13 °C
60 | CMC2 (UniProt Q9NRP2) | 1.99 °C | –
61 | RPL27A (UniProt P46776) | 1.35 °C | -0.293 °C
62 | DMXL2 (UniProt Q8TDJ6) | -0.412 °C | 0.728 °C
63 | RAB5C (UniProt P51148) | 0.783 °C | -0.275 °C
64 | STAT1 (UniProt P42224) | -0.69 °C | -0.296 °C
65 | TRAPPC11 (UniProt Q7Z392) | -0.307 °C | -0.257 °C
66 | APOB (UniProt P04114) | -1.23 °C | 1.99 °C
67 | UniProt P19823 | – | -0.689 °C
68 | PWP2 (UniProt Q15269) | – | 0.431 °C
69 | MRPL51 (UniProt Q4U2R6) | 0.418 °C | -1.86 °C
70 | UniProt O75334 | – | -0.0913 °C
71 | SGF29 (UniProt Q96ES7) | 0.5 °C | –
72 | SERF2 (UniProt P84101) | -4.62 °C | –

Row | Target | melting temperature shift [1] | melting temperature shift [2]
73 | RNMT (UniProt O43148) | -0.407 °C | -0.0448 °C
74 | DLGAP4 (UniProt Q9Y2H0) | 0.217 °C | 0.44 °C
75 | PUS3 (UniProt Q9BZE2) | 0.529 °C | -0.389 °C
76 | UniProt P54132 | – | 1.6 °C
77 | COL5A2 (UniProt P05997) | 1.55 °C | –
78 | UniProt Q8IZT6 | -1.77 °C | –
79 | UniProt O15111 | -1.48 °C | -0.332 °C
80 | UniProt O43422 | -1.4 °C | -1.24 °C
81 | PSMC1 (UniProt P62191) | -0.316 °C | -1.2 °C
82 | COPA (UniProt P53621) | -0.776 °C | 0.0614 °C
83 | PIGU (UniProt Q9H490) | 0.54 °C | -1.94 °C
84 | TPRG1L (UniProt Q5T0D9) | 2.8 °C | –
85 | RPL24 (UniProt P83731) | 1.17 °C | -0.709 °C
86 | SNRPD2 (UniProt P62316) | -1.4 °C | -0.192 °C
87 | UniProt Q8N9E0 | – | -1.33 °C
88 | UniProt P02768 | -0.27 °C | –
89 | UniProt Q86SJ2 | 0.681 °C | 0.915 °C
90 | AKT3 (UniProt Q9Y243) | – | -0.84 °C
91 | DAB2 (UniProt P98082) | -1.03 °C | -0.0489 °C
92 | NARS2 (UniProt Q96I59) | – | -2.48 °C
93 | TRIM32 (UniProt Q13049) | -1.44 °C | 0.345 °C
94 | GSTCD (UniProt Q8NEC7) | -2.9 °C | 3 °C
95 | CYB5B (UniProt O43169) | 1.61 °C | –
96 | AGO2 (UniProt Q9UKV8) | 0.942 °C | 0.523 °C

Row | Target | melting temperature shift [1] | melting temperature shift [2]
97 | CDYL (UniProt Q9Y232) | -0.0958 °C | 1.39 °C
98 | PPCS (UniProt Q9HAB8) | -0.399 °C | 0.117 °C
99 | NUMA1 (UniProt Q14980) | -0.141 °C | 0.376 °C
100 | ABHD16A (UniProt O95870) | 3.21 °C | -0.561 °C
101 | USP8 (UniProt P40818) | -0.412 °C | 0.252 °C
102 | UniProt Q8TDX6 | – | -1.59 °C
103 | SPCS3 (UniProt P61009) | 1.07 °C | -0.128 °C
104 | QRSL1 (UniProt Q9H0R6) | 0.013 °C | -0.863 °C
105 | TMEM11 (UniProt P17152) | 1.4 °C | 0.608 °C
106 | TFB2M (UniProt Q9H5Q4) | -0.0255 °C | -0.778 °C
107 | PEX3 (UniProt P56589) | 0.257 °C | -1.28 °C
108 | UniProt Q9NYL2 | -0.385 °C | 0.0262 °C
109 | ASCC2 (UniProt Q9H1I8) | -0.0237 °C | 1.5 °C
110 | UniProt Q9UMX1 | -1.94 °C | –
111 | HELLS (UniProt Q9NRZ9) | 0.315 °C | –
112 | UCHL3 (UniProt P15374) | -0.631 °C | 1.17 °C
113 | UniProt Q8NDX5 | 1.74 °C | –
114 | NOP16 (UniProt Q9Y3C1) | 1.5 °C | –
115 | UniProt A6NLJ0 | – | -0.484 °C
116 | UniProt Q96H35 | 6.82 °C | –

7 entries picked at random from the list so far:
Row | Target | melting temperature shift [1] | melting temperature shift [2]
44 | NRF1 (UniProt Q16656) | 0.186 °C | 0.333 °C
65 | TRAPPC11 (UniProt Q7Z392) | -0.307 °C | -0.257 °C
91 | DAB2 (UniProt P98082) | -1.03 °C | -0.0489 °C
58 | STXBP5 (UniProt Q5T5C0) | – | 1.32 °C
46 | ENDOD1 (UniProt O94919) | 1.01 °C | 0.0577 °C
103 | SPCS3 (UniProt P61009) | 1.07 °C | -0.128 °C
82 | COPA (UniProt P53621) | -0.776 °C | 0.0614 °C
